Publication PMC10932240
These are yes or no findings as the source states them, for the method shown. In cells and extracts the contact can be indirect. Here binding means that the protein was enriched with, or labelled near, the bait; the list need not be complete.

Molecular target: PRRSV structural protein GP5 (PRRSV Hn07-1 (Type 2 PRRSV))
Assay: affinity purification with mass spectrometry; primary PAMs infected with PRRSV (MOI 1, 36 h), NP-40 lysate; anti-PRRSV-GP5 mAb overnight at 4 °C, protein A/G agarose 4 h at 4 °C, five washes; SDS-PAGE, silver stain, bands differing from the IgG-IP lane excised, LC-MS/MS

B1: VPS18 (protein, UniProt F1SSU6 1-973)
chain: MASILDEYEDSLSRSAVLQPGCPSVGIPHSGYVNAQLEKEAPIFSKQRIDFTPSERITSLVVSCNQLCMSLGKDTLLRIDLGKANEPNHMELGRKDDAKVHKMFLDHTGSHLLIALSSTEVLYVNRNGQKVRPLARWKGQLVESVGWNKALGTESSTGPILVGTAQGQIFEAELSASEGGLFGPAPDLYFRPLYVLNEEGGPAPVCSLEAERGPEGRGFVIATTRQRLFQFIGRASEGAEAQGFSGLFAAYADHPPPFREFPSSLGYSELAFYTPKLRSAPRAFAWMMGDGVLYGSLDCGRPDSLLSEERVWEYPEGVGPGGSPPLAIVLTQFHFLLLLADRVEAVCTLTGQVVLRDHFLEKFGPLRHMVKDSSTGHLWAHTERAVFRYHVQREARDVWRTYLDMNRFDLAKEYCRERPDCLDTVLAREADFCFRQRRYLESARCYALTQSYFEEIALKFLEARQEEALAEFLQRKLASLKPAERTQATLLTTWLTELYLSRLGALQGDPEALNLYRETRERFRAFLSSPRHKEWLFASRASIHELLASHGDTEHMVYFAVIMQDYERVVAYHCQHEAYEEALAVLARHRDPQLFYKFSPILIRHIPRQLVDAWIELGSRLDARQLIPALVNYSQGGEAQQVSQAIRYMEFCVNVLGETEQAIHNYLLSLYARGQPASLLAYLEQAGTSPHRVHYDLKYALRLCAEHGHHRACVHVYKVLELYEEAVDLALQVDVDLAKQCADLPEEDEELRKKLWLKIARHVVQEEEDVQTAMACLASCPLLKIEDVLPFFPDFVTIDHFKEAICSSLKAYNYHIQELQQEMEEATASAQRIRRDLQELRGRYGTVEPQDKCATCDFPLLNRPFYLFLCGHMFHADCLLQAVRPGLPAYKQARLEELQRKLGAVPPPSKGSARAKEAEAGVAASGPSREQLKADLDELVAAECVYCGELMIRSIDRPFIDPQCYEEEHLSWL
For B1, the binding was “binds”.
